According to paper PMC6523098:
Results are given in words; binding and its absence hold for the method and conditions named. A result given as binding can be weak or reduced; the word gives no strength. Sequences can lack the tags named with a protein.

Target: BrRAP2.4 PEST motif alone (GST fusion) (Brassica rapa)
Test: pull-down; GST:BrRAP2.4 proteins on beads, eluted His:AtBPM3; 100 mM Tris/HCl pH 7.5, 150 mM NaCl, 0.1% Tween-20, 4 °C, one hour; both purified

B1: His:AtBPM3 (protein, UniProt O22286 1-408)
chain: MSTVGGIEQLIPDSVSTSFIETVNGSHQFTIQGYSLAKGMSPGKFIQSDIFSVGGYDWAIYFYPDGKNPEDQSSYISLFIALASDSNDIRALFELTLMDQSGKGKHKVHSHFDRALEGGPYTLKYKGSMWGYKRFFKRSALETSDYLKDDCLVINCTVGVVRARLEGPKQYGIVLPLSNMGQGLKDLLDSEVGCDIAFQVGDETYKAHKLILAARSPVFRAQFFGPIGNNNVDRIVIDDIEPSIFKAMLSFIYTDVLPNVHEITGSTSASSFTNMIQHLLAAADLYDLARLKILCEVLLCEKLDVDNVATTLALAEQHQFLQLKAFCLEFVASPANLGAVMKSEGFKHLKQSCPTLLSELLNTVAAADKSSTSGQSNKKRSASSVLGCDTTNVRQLRRRTRKEVRAVS
binding: binds
